Laboratory results reported in US10265275B2, “Phenolic coatings and methods of making and using same” (Northwestern University, priority 2013, dated 2019).
Some compounds share one wording; it may come from a single statement.

Columns and labels:
[1] = Coating thickness on TiO2 by ellipsometry; conditions: TiO2, 48 h, pH 8
[2] = Effect of salt on coating formation on TiO2, XPS Ti2p signal; conditions: for able to coat both TiO2 and SiO2 with at least one of the experimental conditions: TiO2 and SiO2, salts of Tables 8-9; for Ti2p Signal Strength (%): 48 h
[3] = Effect of salt on coating formation on SiO2, XPS Si2p signal; conditions: 48 h
[4] = Coating ability on TiO2 at pH 3-9, XPS Ti2p signal attenuation; conditions: for capable of forming coatings between pH 3 and 9: TiO2, XPS, at least 20% signal reduction; for Ti2p Signal Strength (%): 24 h, 600 mM NaCl
[5] = Coating ability on a wide range of substrate materials (XPS, ellipsometry, silver deposition); conditions: 600 mM NaCl
[6] = pH 8, Ca2+ = 600 mM CaCl2, 1 mg/mL
[7] = pH 8, Cu2+ = 100 μM CuCl2 + 600 mM NaCl, 1 mg/mL
[8] = pH 8, Mg2+ = 600 mM MgCl2, 1 mg/mL
[9] = pH 8, Na+ = 600 mM NaCl, 1 mg/mL
[10] = pH 8, Zn2+ = 100 μM ZnCl2 + 600 mM NaCl, 1 mg/mL
[11] = pH 7, Ca2+ = 600 mM CaCl2, 1 mg/mL
[12] = pH 7, Cu2+ = 100 μM CuCl2 + 600 mM NaCl, 1 mg/mL
[13] = pH 7, Mg2+ = 600 mM MgCl2, 1 mg/mL
[14] = pH 7, Na+ = 600 mM NaCl, 1 mg/mL
[15] = pH 7, Zn2+ = 100 μM ZnCl2 + 600 mM NaCl, 1 mg/mL
[16] = pH 9, Ca2+ = 600 mM CaCl2, 1 mg/mL
[17] = pH 9, Cu2+ = 100 μM CuCl2 + 600 mM NaCl, 1 mg/mL
[18] = pH 9, Mg2+ = 600 mM MgCl2, 1 mg/mL
[19] = pH 9, Na+ = 600 mM NaCl, 1 mg/mL
[20] = pH 9, Zn2+ = 100 μM ZnCl2 + 600 mM NaCl, 1 mg/mL

SMILES | able to coat both TiO2 and SiO2 with at least one of the experimental conditions [2] | Ti2p Signal Strength (%) [2, 6] [%] | Ti2p Signal Strength (%) [2, 7] [%] | Ti2p Signal Strength (%) [2, 8] [%] | Ti2p Signal Strength (%) [2, 9] [%] | Ti2p Signal Strength (%) [2, 10] [%] | Si2p Signal Strength (%) [3, 6] [%] | Si2p Signal Strength (%) [3, 7] [%] | Si2p Signal Strength (%) [3, 8] [%] | Si2p Signal Strength (%) [3, 9] [%] | Si2p Signal Strength (%) [3, 10] [%] | capable of forming coatings between pH 3 and 9 [4] | Ti2p Signal Strength (%) ([4]; pH 7, precursor 1 mg/mL) | Ti2p Signal Strength (%) ([4]; pH 8, precursor 1 mg/mL) | Ti2p Signal Strength (%) ([4]; pH 9, precursor 1 mg/mL) | Ti2p Signal Strength (%) [2, 16] [%] | Ti2p Signal Strength (%) [2, 17] [%] | Ti2p Signal Strength (%) [2, 18] [%] | Ti2p Signal Strength (%) [2, 19] [%] | Ti2p Signal Strength (%) [2, 20] [%] | further results
Oc1ccccc1O [Catechol, catechol] | able to coat both TiO2 and SiO2 | 0.0 | 89.8 | 0.0 | 9.7 | 93.5 | 0.0 | 72.4 | 0.0 | 108.7 | 76.9 | capable of forming coatings | 51.7 | 8.5 | 81.1 |  |  |  |  |  | Coating Thickness (nm) [1]: 5.0 ± 0.1 nm; Optimal Coating pH ([4]; pH with the greatest signal attenuation in the XPS trials): 8.0; Coating Formed? SiO2 ([5]; substrate SiO2 (silica), each precursor at its own pH): No; Coating Formed? TiO2 ([5]; substrate TiO2, each precursor at its own pH (TA 7, PG 7, catechol 8, catechin 9, HHQ 6, EGCG 7)): Yes; Coating Formed? Au ([5]; substrate gold, each precursor at its own pH): Yes; Coating Formed? Nylon ([5]; substrate nylon 6-12, each precursor at its own pH): Yes; Coating Formed? PEEK ([5]; substrate poly(ether ether ketone), each precursor at its own pH): Yes; Coating Formed? PPS ([5]; substrate poly(p-phenylene sulfide), each precursor at its own pH): Yes; Coating Formed? PC ([5]; substrate polycarbonate, each precursor at its own pH): Yes; Coating Formed? PS ([5]; substrate polystyrene, each precursor at its own pH): Yes; Coating Formed? PTFE ([5]; substrate polytetrafluoroethylene, each precursor at its own pH): Yes; Coating Formed? SS ([5]; substrate stainless steel, each precursor at its own pH): Yes
O=C(O)c1cc(O)c(O)c(O)c1 [Gallic acid, gallic acid] | able to coat both TiO2 and SiO2 |  |  |  |  |  |  |  |  |  |  |  | 94.0 | 95.0 | 88.3 |  |  |  |  |  | Ti2p Signal Strength (%) [2, 11]: 0.0%; Ti2p Signal Strength (%) [2, 12]: 106.3%; Ti2p Signal Strength (%) [2, 13]: 0.0%; Ti2p Signal Strength (%) [2, 14]: 107.6%; Ti2p Signal Strength (%) [2, 15]: 80.7%; Si2p Signal Strength (%) [3, 11]: 7.7%; Si2p Signal Strength (%) [3, 12]: 91.0%; Si2p Signal Strength (%) [3, 13]: 0.0%; Si2p Signal Strength (%) [3, 14]: 95.3%; Si2p Signal Strength (%) [3, 15]: 107.5%
Oc1ccc(O)cc1 [Hydroquinone, hydroquinone] | able to coat both TiO2 and SiO2 |  |  |  |  |  |  |  |  |  |  | capable of forming coatings | 89.3 | 89.6 | 70.6 | 0.0 | 93.5 | 62.5 | 80.8 | 108.7 | Si2p Signal Strength (%) [3, 16]: 86.5%; Si2p Signal Strength (%) [3, 17]: 68.2%; Si2p Signal Strength (%) [3, 18]: 77.1%; Si2p Signal Strength (%) [3, 19]: 85.9%; Si2p Signal Strength (%) [3, 20]: 89.0%
O=c1c(O)c(-c2ccc(O)cc2O)oc2cc(O)cc(O)c12 [Morin, morin] |  |  |  |  |  |  |  |  |  |  |  | capable of forming coatings |  | 45.9 | 54.7 |  |  |  |  |  | Coating Thickness (nm) [1]: 1.9 ± 0.2 nm
O=C1C[C@@H](c2ccc(O)cc2)Oc2cc(O)cc(O)c21 [Naringenin, naringenin] |  |  |  |  |  |  |  |  |  |  |  | capable of forming coatings |  | 80.2 | 90.1 |  |  |  |  |  | 
C[C@@H]1O[C@@H](O[C@H]2[C@H](Oc3cc(O)c4c(c3)O[C@H](c3ccc(O)cc3)CC4=O)O[C@H](CO)[C@@H](O)[C@@H]2O)[C@H](O)[C@H](O)[C@H]1O [Naringin, naringin] |  |  |  |  |  |  |  |  |  |  |  | capable of forming coatings | 90.9 | 79.0 | 80.0 |  |  |  |  |  | 
Oc1ccccc1 [Phenol, phenol] | able to coat both TiO2 and SiO2 | 106.8 | 78.7 | 0.0 | 78.5 | 86.4 | 70.8 | 71.9 | 0.0 | 93.0 | 85.6 | capable of forming coatings | 102.2 | 68.5 | 79.0 |  |  |  |  |  | 
Oc1cc(O)cc(O)c1 [Phloroglucinol, phloroglucinol] | able to coat both TiO2 and SiO2 | 106.8 | 94.7 | 84.7 | 94.8 | 91.9 | 91.7 | 83.9 | 69.4 | 85.3 | 88.7 | capable of forming coatings | 98.0 | 82.8 | 77.4 | 81.7 | 94.4 | 51.6 | 88.6 | 111.9 | Si2p Signal Strength (%) [3, 16]: 84.6%; Si2p Signal Strength (%) [3, 17]: 78.9%; Si2p Signal Strength (%) [3, 18]: 76.5%; Si2p Signal Strength (%) [3, 19]: 30.5%; Si2p Signal Strength (%) [3, 20]: 90.4%
O=c1c(O)c(-c2ccc(O)c(O)c2)oc2cc(O)cc(O)c12 [Quercetin, quercetin] | able to coat both TiO2 and SiO2 |  |  |  |  |  |  |  |  |  |  | capable of forming coatings |  |  | 73.3 | 0.0 | 94.4 | 54.6 | 83.9 | 77.6 | Si2p Signal Strength (%) [3, 16]: 0.0%; Si2p Signal Strength (%) [3, 17]: 88.5%; Si2p Signal Strength (%) [3, 18]: 7.8%; Si2p Signal Strength (%) [3, 19]: 90.2%; Si2p Signal Strength (%) [3, 20]: 95.1%
Oc1cccc(O)c1 [Resorcinol, resorcinol] | able to coat both TiO2 and SiO2 | 111.6 | 84.1 | 0.0 | 97.3 | 104.7 | 88.7 | 76.9 | 71.6 | 89.9 | 90.6 | capable of forming coatings | 94.7 | 85.0 | 90.9 |  |  |  |  |  | 
